Reference: US20230149418A1, “METHODS AND SYNERGIC COMPOSITIONS FOR TREATING VIRAL INFECTIONS” (HADASIT MEDICAL RESEARCH SERVICES AND DEVELOPMENT LTD., priority 2018, published 2023)
Values joined by “and” are separate entries in the source; they are usually repeats but may differ in a detail not shown here. Equal values may be shown once. At least one read-out could not be matched to a standard name with certainty.

Tested on: HCMV TB40/E strain
Assay: Plaque reduction assay, HCMV TB40/E strain in human foreskin fibroblasts, single drugs and 2-drug combinations (Chou-Talalay)
Format: cell-based, human cytomegalovirus
Details: Fa 0.5, drug alone; listed as Art; read-out: Dose of drug alone at Fa 0.5
Experimental: The CMV strain used was TB40/E. The CMV strain was propagated and tittered in human foreskin fibroblasts (HFF) cells. Cell-free virus stocks and cell-associated clinical isolates were maintained at -70° C. Viral stocks were tittered by serial 10-fold dilution in 24-well tissue culture plates containing HFF monolayers overlaid with agarose-medium. After incubation for 7 to 14 days, plaques were enumerated, and virus titer was determined as plaque forming units (PFU) per milliliter (ml). Stocks of artemisone (10 mM), ganciclovir (10 mM), BDCRB (120 mM), brincidofovir (1 mM), maribavir (10 mM) and letermovir (10 mM) were prepared in DMSO or H2O.
Cell monolayers were inoculated in 24-well culture plates with 0.2 ml of virus suspension containing 60 to 100 PFU per well. […] Plaques were then counted microscopically.
The effect of a combination of artemisone with each one of ganciclovir (HCMV DNA polymerase), BDCRB (HCMV terminase inhibitor), brincidofovir (HCMV DNA polymerase inhibitor), maribavir (HCMV UL97 kinase inhibitor) and letermovir (HCMV terminase inhibitor) was evaluated by the classical plaque reduction assay. The in vitro activity of each of the above mentioned antiviral compounds alone or in combination with artemisone was evaluated by the classical plaque reduction assay, using HCMV TB40/E strain in human foreskin fibroblasts cells. […]

## CC1CCC2[C@@H](C)[C@H](N3CCS(=O)(=O)CC3)OC3O[C@]4(C)CCC1C32OO4 (stereo in doubt) [artemisone]
  EC50: 630 nM and 1060 nM
